According to the supplement of paper PMC10849652:
This is one part of the list.

Amino acid sequences for entries named in this document (tags omitted). A change or cut given only in a name is not applied to a line headed by its entry.
UniProt Q9NZ63: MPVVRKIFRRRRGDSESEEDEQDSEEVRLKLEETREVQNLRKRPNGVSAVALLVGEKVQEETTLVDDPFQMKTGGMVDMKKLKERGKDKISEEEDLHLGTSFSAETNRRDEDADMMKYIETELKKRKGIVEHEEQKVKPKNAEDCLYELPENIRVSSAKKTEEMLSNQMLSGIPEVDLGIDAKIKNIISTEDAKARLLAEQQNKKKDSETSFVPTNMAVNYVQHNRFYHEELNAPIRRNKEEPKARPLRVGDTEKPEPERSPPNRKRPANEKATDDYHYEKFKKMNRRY
UniProt P27797, whole entry, looked up: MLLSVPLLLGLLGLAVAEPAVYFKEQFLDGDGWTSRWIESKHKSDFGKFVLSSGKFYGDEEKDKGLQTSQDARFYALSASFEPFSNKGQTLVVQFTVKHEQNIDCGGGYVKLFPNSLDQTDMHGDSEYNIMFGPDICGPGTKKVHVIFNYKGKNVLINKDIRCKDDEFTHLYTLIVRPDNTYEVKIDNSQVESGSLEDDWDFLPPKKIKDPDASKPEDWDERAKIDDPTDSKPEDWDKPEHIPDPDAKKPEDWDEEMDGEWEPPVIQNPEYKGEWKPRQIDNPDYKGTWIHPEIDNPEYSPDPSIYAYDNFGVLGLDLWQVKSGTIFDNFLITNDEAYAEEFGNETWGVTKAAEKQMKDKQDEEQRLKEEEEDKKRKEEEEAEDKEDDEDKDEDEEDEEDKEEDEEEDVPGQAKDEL
UniProt P41223: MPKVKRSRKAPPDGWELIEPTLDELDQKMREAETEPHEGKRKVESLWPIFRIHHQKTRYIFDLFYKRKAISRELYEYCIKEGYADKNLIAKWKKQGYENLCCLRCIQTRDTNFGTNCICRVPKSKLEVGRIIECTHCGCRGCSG
UniProt Q8N5I9: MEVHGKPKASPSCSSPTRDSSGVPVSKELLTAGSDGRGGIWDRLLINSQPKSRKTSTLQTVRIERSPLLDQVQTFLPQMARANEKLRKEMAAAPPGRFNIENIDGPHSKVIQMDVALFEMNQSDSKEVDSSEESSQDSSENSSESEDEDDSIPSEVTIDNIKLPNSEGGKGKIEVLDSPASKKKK
UniProt Q9H8G2: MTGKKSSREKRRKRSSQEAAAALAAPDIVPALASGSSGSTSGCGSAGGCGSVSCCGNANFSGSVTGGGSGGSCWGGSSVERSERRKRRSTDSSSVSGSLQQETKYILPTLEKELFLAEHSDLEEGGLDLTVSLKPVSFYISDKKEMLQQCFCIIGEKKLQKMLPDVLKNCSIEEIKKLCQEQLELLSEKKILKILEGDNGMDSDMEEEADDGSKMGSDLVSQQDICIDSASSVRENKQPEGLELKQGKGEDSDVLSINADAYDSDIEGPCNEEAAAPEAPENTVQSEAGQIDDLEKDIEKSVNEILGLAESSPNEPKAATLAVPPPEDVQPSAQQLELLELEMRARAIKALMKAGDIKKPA
UniProt Q01518, whole entry, looked up: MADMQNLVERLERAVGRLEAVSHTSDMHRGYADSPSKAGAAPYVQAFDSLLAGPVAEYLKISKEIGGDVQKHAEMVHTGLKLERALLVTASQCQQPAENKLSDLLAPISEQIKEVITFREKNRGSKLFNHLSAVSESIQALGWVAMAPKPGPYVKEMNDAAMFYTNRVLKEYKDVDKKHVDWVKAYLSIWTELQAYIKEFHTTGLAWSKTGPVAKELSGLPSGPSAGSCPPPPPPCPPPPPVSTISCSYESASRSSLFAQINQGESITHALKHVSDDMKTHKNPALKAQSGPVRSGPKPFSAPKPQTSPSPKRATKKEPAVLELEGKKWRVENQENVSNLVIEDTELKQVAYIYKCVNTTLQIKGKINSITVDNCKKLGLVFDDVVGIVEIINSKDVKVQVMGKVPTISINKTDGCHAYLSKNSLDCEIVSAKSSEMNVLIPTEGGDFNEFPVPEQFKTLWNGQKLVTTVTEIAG
UniProt Q8WUR7: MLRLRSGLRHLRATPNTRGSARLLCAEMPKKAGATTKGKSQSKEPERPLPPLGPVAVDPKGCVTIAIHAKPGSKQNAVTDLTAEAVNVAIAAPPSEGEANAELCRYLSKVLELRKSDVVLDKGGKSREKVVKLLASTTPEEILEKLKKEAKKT
UniProt O75155: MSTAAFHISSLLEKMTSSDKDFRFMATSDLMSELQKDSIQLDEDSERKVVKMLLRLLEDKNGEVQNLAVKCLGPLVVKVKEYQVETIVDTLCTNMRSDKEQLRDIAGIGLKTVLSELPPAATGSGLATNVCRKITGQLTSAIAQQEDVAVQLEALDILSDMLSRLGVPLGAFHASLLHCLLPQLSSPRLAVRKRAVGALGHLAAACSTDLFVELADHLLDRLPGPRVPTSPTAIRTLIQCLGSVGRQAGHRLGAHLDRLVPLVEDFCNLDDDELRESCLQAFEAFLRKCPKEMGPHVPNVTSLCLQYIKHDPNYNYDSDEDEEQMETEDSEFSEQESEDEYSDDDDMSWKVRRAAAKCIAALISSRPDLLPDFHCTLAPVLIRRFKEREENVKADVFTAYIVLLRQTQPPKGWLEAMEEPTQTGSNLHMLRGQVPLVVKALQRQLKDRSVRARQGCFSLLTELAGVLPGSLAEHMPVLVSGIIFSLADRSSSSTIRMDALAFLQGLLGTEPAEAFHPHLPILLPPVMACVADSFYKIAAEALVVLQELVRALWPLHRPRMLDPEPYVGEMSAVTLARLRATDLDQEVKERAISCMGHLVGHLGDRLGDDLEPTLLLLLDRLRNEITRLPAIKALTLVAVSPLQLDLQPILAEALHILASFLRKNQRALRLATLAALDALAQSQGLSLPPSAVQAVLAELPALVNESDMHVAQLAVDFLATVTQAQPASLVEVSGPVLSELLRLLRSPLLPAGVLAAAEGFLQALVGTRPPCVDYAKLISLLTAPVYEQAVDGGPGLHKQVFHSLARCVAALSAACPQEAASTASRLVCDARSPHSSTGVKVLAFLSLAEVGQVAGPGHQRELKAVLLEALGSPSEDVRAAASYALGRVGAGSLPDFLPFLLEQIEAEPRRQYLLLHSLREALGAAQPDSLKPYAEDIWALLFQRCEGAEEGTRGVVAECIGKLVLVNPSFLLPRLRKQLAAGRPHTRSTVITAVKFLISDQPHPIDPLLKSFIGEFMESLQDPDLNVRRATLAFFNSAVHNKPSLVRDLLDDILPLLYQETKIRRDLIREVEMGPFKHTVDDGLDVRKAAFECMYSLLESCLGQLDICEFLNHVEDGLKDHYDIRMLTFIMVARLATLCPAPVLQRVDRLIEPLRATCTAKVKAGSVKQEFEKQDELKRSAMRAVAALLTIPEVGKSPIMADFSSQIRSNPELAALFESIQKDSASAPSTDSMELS
UniProt O43709: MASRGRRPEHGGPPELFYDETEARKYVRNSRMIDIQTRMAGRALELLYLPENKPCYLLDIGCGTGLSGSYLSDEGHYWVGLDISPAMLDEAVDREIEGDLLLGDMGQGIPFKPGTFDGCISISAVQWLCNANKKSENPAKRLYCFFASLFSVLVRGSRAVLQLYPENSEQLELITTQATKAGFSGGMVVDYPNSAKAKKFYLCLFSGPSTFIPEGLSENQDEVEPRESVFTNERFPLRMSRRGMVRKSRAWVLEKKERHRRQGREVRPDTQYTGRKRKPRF
UniProt Q9H425: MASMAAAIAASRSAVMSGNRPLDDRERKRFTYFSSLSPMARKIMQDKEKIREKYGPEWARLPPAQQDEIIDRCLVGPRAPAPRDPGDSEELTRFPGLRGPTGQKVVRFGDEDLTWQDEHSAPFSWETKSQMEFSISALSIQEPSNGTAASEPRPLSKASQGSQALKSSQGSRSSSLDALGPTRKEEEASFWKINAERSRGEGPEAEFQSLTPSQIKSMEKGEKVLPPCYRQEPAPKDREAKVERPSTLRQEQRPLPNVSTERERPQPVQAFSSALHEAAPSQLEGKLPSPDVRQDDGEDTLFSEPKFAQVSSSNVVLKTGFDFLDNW
UniProt O43684, whole entry, looked up: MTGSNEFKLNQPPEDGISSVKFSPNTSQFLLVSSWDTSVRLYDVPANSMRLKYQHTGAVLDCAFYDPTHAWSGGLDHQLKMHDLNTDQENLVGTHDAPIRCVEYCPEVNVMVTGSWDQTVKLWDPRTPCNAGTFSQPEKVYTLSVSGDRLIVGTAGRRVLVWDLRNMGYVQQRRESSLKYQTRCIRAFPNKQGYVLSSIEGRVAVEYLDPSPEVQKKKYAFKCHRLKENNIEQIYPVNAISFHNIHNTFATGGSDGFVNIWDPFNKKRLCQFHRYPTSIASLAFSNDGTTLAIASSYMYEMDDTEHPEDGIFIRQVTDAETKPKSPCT
UniProt O43852: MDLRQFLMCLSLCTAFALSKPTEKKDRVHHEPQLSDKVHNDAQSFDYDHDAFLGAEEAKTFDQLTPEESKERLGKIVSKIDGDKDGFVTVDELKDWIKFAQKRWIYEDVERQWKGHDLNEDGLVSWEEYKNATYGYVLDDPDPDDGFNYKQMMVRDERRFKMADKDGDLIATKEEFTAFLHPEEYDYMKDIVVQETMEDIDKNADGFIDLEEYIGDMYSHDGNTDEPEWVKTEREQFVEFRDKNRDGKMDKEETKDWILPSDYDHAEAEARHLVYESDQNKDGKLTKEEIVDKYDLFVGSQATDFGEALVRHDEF
UniProt Q86VP6: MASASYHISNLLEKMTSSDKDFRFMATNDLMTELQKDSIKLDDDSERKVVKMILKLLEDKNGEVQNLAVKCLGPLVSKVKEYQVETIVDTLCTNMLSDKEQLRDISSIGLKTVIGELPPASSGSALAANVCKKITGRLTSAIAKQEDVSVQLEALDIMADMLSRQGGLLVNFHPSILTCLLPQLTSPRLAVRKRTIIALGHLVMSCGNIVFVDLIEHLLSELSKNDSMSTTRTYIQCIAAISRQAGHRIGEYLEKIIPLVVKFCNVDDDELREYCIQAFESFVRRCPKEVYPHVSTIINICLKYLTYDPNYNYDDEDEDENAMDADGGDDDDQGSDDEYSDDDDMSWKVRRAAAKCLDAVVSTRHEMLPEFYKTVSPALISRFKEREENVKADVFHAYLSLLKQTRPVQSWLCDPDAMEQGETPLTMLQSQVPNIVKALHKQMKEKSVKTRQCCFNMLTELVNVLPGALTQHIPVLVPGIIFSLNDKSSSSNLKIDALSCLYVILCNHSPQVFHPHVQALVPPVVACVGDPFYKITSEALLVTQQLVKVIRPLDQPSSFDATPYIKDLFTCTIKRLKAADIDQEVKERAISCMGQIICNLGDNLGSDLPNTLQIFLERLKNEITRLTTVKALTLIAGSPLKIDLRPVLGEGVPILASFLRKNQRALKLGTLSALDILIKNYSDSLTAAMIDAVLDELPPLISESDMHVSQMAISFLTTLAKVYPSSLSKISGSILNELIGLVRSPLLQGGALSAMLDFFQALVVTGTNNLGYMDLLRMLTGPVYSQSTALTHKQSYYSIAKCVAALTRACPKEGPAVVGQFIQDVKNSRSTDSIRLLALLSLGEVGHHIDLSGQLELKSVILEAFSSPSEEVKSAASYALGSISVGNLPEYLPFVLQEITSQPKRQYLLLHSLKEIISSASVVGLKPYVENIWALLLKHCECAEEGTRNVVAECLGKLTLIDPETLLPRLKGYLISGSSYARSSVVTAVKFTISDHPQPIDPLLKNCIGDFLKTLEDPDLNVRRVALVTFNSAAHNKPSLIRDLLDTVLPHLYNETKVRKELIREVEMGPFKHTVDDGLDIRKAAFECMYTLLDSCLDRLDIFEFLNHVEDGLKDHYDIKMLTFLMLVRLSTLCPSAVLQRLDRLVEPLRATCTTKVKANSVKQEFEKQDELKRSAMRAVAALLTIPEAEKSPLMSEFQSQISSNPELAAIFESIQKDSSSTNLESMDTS
UniProt Q6P1X6: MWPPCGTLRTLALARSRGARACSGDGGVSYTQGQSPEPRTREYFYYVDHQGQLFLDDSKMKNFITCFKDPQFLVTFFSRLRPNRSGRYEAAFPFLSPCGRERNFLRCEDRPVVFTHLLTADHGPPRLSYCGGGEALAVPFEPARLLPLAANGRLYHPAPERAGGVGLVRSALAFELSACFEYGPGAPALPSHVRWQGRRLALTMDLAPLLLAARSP
UniProt P35613: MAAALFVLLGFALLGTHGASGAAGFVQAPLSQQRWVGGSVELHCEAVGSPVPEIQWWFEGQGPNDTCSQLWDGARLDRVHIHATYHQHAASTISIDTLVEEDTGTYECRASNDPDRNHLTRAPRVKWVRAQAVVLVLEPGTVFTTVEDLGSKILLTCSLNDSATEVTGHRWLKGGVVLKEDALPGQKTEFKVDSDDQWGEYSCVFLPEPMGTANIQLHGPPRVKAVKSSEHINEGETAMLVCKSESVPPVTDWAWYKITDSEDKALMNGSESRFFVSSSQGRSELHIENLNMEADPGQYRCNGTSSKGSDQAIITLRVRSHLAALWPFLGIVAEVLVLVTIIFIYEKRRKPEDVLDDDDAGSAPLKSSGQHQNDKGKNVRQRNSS
UniProt Q8IXQ3: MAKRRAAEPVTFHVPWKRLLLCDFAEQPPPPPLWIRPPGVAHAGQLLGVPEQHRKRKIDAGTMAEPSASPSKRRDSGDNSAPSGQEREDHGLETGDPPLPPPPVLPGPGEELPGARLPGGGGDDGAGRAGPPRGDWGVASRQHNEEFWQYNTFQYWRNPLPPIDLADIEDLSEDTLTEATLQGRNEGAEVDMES

How the values were obtained:
Assay in all cases: log2 fold change, soluble protein after heating vs DMSO (PISA); higher = thermal stabilisation; K562 cells, 10 uM, 30 min; active = over 0.2 and 3.5 SD of the protein, either way, in both replicates (recomputed)
saracatinib = compound: CN1CCN(CCOc2cc(OC3CCOCC3)c3c(Nc4c(Cl)ccc5c4OCO5)ncnc3c2)CC1 [saracatinib]
Summary of the method: (§1)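 K562 cells at 2×10^6 cells/mL were exposed to 10 μM compound for 30 min, then aliquots were heated for 3 min across 48°C-58°C, pooled, and extracted in PBS containing 0.5% NP-40 at 4°C. The supernatant after 21,000xg for 90 min was taken as soluble protein and measured by TMTpro 16plex LC-MS/MS with channel sums equalised. Thermal stability is reported relative to control samples, with values from duplicates. Fold changes are given on a log2 scale.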

sotrastaurin = compound: CN1CCN(c2nc(C3=C(c4c[nH]c5ccccc45)C(=O)NC3=O)c3ccccc3n2)CC1 [sotrastaurin]
Summary of the method: as §1

alvocidib = compound: CN1CC[C@H](c2c(O)cc(O)c3c(=O)cc(-c4ccccc4Cl)oc23)[C@H](O)C1 [alvocidib]
Summary of the method: as §1

Tubastatin A = compound: CN1CCc2c(c3ccccc3n2Cc2ccc(C(=O)NO)cc2)C1 [Tubastatin A]
Summary of the method: as §1

[1] = compound: CNC(=O)C1=CC=CC=C1NC2=NC(=NC=C2Cl)NC3=C(C=C(C=C3)N4CCOCC4)OC
Summary of the method: as §1

defactinib = compound: CNC(=O)c1ccc(Nc2ncc(C(F)(F)F)c(NCc3nccnc3N(C)S(C)(=O)=O)n2)cc1 [defactinib]
Summary of the method: as §1

rucaparib = compound: CNCc1ccc(-c2[nH]c3cc(F)cc4c3c2CCNC4=O)cc1 [rucaparib]
Summary of the method: as §1

[2] = compound: CNc1nc(-c2ccc3c(N)n[nH]c3c2)cc(N2C[C@@H](C(=O)NC3CCCCC3)CC[C@H]2C)n1
Summary of the method: as §1

encorafenib = compound: COC(=O)N[C@@H](C)CNc1nccc(-c2cn(C(C)C)nc2-c2cc(Cl)cc(NS(C)(=O)=O)c2F)n1 [encorafenib]
Summary of the method: as §1

[3] = compound: COC(=O)[C@H](CCSC)NC(=O)C1=C(C=C(C=C1)NC[C@H](CS)N)C2=CC=CC=C2
Summary of the method: as §1

Measured: log2 fold change

C9orf78 (UniProt Q9NZ63)
inactive: saracatinib 0.036 | sotrastaurin 0.03 | alvocidib 0.014 | Tubastatin A -0.011 | [1] -0.011 | defactinib 0.016 | rucaparib -0.059 | [2] -0.017 | encorafenib -0.019 | [3] 0.034

C1orf52 (UniProt Q8N6N3)
inactive: saracatinib 0.014 | sotrastaurin 0.005 | alvocidib 0.039 | Tubastatin A -0.024 | [1] -0.04 | defactinib -0.009 | rucaparib 0.033 | [2] -0.028 | encorafenib -0.032 | [3] 0.055

CALR (UniProt P27797)
inactive: saracatinib -0.046 | sotrastaurin -0.043 | alvocidib 0.01 | Tubastatin A -0.023 | [1] 0.014 | defactinib 0.042 | rucaparib 0.04 | [2] -0.015 | encorafenib 0.018 | [3] 0.018

BUD31 (UniProt P41223)
inactive: saracatinib -0.004 | sotrastaurin 0.011 | alvocidib -0.022 | Tubastatin A -0.01 | [1] 0.007 | defactinib -0.002 | rucaparib 0.048 | [2] -0.026 | encorafenib -0.064 | [3] -0.021

C12orf45 (UniProt Q8N5I9)
inactive: saracatinib 0.052 | sotrastaurin -0.01 | alvocidib -0.002 | Tubastatin A 0.028 | [1] -0.015 | defactinib -0.014 | rucaparib -0.118 | [2] -0.056 | encorafenib -0.007 | [3] 0.021

CAAP1 (UniProt Q9H8G2)
inactive: saracatinib -0.031 | sotrastaurin 0.011 | alvocidib -0.112 | Tubastatin A -0.004 | [1] -0.041 | defactinib -0.001 | rucaparib 0.046 | [2] -0.177 | encorafenib -0.029 | [3] 0.032

CAP1 (UniProt Q01518)
inactive: saracatinib 0.001 | sotrastaurin 0 | alvocidib -0.049 | Tubastatin A -0.002 | [1] 0.049 | defactinib 0.023 | rucaparib -0.057 | [2] -0.01 | encorafenib 0 | [3] -0.003

CAPZA2 (UniProt P47755)
inactive: saracatinib 0.026 | sotrastaurin -0.007 | alvocidib -0.017 | Tubastatin A -0.012 | [1] 0.058 | defactinib -0.055 | rucaparib -0.021 | [2] -0.034 | encorafenib -0.021 | [3] -0.023

C12orf73 (UniProt Q69YU5)
inactive: saracatinib 0.018 | sotrastaurin 0.087 | alvocidib 0.03 | Tubastatin A -0.133 | [1] -0.02 | defactinib 0.062 | rucaparib 0.002 | [2] -0.072 | encorafenib -0.068 | [3] 0.127

C1QBP (UniProt Q07021)
inactive: saracatinib 0.031 | sotrastaurin 0.092 | alvocidib -0.043 | Tubastatin A 0.079 | [1] 0.049 | defactinib -0.101 | rucaparib -0.022 | [2] 0.07 | encorafenib -0.006 | [3] -0.001

C15orf40 (UniProt Q8WUR7)
inactive: saracatinib -0.018 | sotrastaurin 0.074 | alvocidib 0.036 | Tubastatin A -0.034 | [1] 0.042 | defactinib 0.036 | rucaparib 0.003 | [2] -0.081 | encorafenib -0.081 | [3] 0.062

C5orf51 (UniProt A6NDU8)
inactive: saracatinib -0.189 | sotrastaurin -0.087 | alvocidib -0.09 | Tubastatin A 0.031 | [1] 0.019 | defactinib -0.072 | rucaparib -0.057 | [2] 0.096 | encorafenib 0.009 | [3] -0.065

BTF3L4 (UniProt Q96K17)
inactive: saracatinib -0.001 | sotrastaurin 0.026 | alvocidib 0.013 | Tubastatin A 0.006 | [1] -0.013 | defactinib -0.038 | rucaparib -0.008 | [2] -0.057 | encorafenib -0.007 | [3] 0.002

CAND2 (UniProt O75155)
inactive: saracatinib 0.067 | sotrastaurin 0.01 | alvocidib 0.076 | Tubastatin A -0.052 | [1] -0.051 | defactinib 0.009 | rucaparib -0.096 | [2] -0.016 | encorafenib -0.015 | [3] 0.045

CALM2 (UniProt P0DP24)
inactive: saracatinib 0.013 | sotrastaurin 0.041 | alvocidib 0.008 | Tubastatin A 0.001 | [1] -0.037 | defactinib 0.024 | rucaparib -0.058 | [2] -0.047 | encorafenib -0.02 | [3] 0.045

CAPZB (UniProt P47756)
inactive: saracatinib -0.004 | sotrastaurin 0.029 | alvocidib -0.054 | Tubastatin A -0.021 | [1] 0.024 | defactinib 0.007 | rucaparib -0.02 | [2] 0 | encorafenib -0.035 | [3] 0.028

BUD23 isoform 3 (UniProt O43709)
inactive: saracatinib -0.037 | sotrastaurin 0.036 | alvocidib 0.13 | Tubastatin A -0.059 | [1] 0.009 | defactinib 0.066 | rucaparib 0.01 | [2] 0.032 | encorafenib 0.112 | [3] -0.004

C1orf198 (UniProt Q9H425)
inactive: saracatinib 0.047 | sotrastaurin -0.003 | alvocidib 0.019 | Tubastatin A 0.094 | [1] -0.041 | defactinib -0.082 | rucaparib -0.153 | [2] 0.003 | encorafenib -0.042 | [3] 0.073

BUB3 (UniProt O43684)
inactive: saracatinib 0.023 | sotrastaurin 0.035 | alvocidib -0.003 | Tubastatin A -0.018 | [1] -0.046 | defactinib -0.003 | rucaparib 0 | [2] -0.008 | encorafenib -0.03 | [3] 0.002

BTD isoform 3 (UniProt P43251)
inactive: saracatinib 0.087 | sotrastaurin 0.042 | alvocidib -0.051 | Tubastatin A -0.084 | [1] -0.059 | defactinib -0.06 | rucaparib 0.043 | [2] 0 | encorafenib -0.102 | [3] 0.252

Reprinted from above (8 entries):
C15orf40 (UniProt Q8WUR7)
inactive: saracatinib -0.018 | sotrastaurin 0.074 | alvocidib 0.036 | Tubastatin A -0.034 | [1] 0.042 | defactinib 0.036 | rucaparib 0.003 | [2] -0.081 | encorafenib -0.081 | [3] 0.062

C5orf51 (UniProt A6NDU8)
inactive: saracatinib -0.189 | sotrastaurin -0.087 | alvocidib -0.09 | Tubastatin A 0.031 | [1] 0.019 | defactinib -0.072 | rucaparib -0.057 | [2] 0.096 | encorafenib 0.009 | [3] -0.065

BTF3L4 (UniProt Q96K17)
inactive: saracatinib -0.001 | sotrastaurin 0.026 | alvocidib 0.013 | Tubastatin A 0.006 | [1] -0.013 | defactinib -0.038 | rucaparib -0.008 | [2] -0.057 | encorafenib -0.007 | [3] 0.002

CAND2 (UniProt O75155)
inactive: saracatinib 0.067 | sotrastaurin 0.01 | alvocidib 0.076 | Tubastatin A -0.052 | [1] -0.051 | defactinib 0.009 | rucaparib -0.096 | [2] -0.016 | encorafenib -0.015 | [3] 0.045

CALM2 (UniProt P0DP24)
inactive: saracatinib 0.013 | sotrastaurin 0.041 | alvocidib 0.008 | Tubastatin A 0.001 | [1] -0.037 | defactinib 0.024 | rucaparib -0.058 | [2] -0.047 | encorafenib -0.02 | [3] 0.045

CAPZB (UniProt P47756)
inactive: saracatinib -0.004 | sotrastaurin 0.029 | alvocidib -0.054 | Tubastatin A -0.021 | [1] 0.024 | defactinib 0.007 | rucaparib -0.02 | [2] 0 | encorafenib -0.035 | [3] 0.028

BUD23 isoform 3 (UniProt O43709)
inactive: saracatinib -0.037 | sotrastaurin 0.036 | alvocidib 0.13 | Tubastatin A -0.059 | [1] 0.009 | defactinib 0.066 | rucaparib 0.01 | [2] 0.032 | encorafenib 0.112 | [3] -0.004

C1orf198 (UniProt Q9H425)
inactive: saracatinib 0.047 | sotrastaurin -0.003 | alvocidib 0.019 | Tubastatin A 0.094 | [1] -0.041 | defactinib -0.082 | rucaparib -0.153 | [2] 0.003 | encorafenib -0.042 | [3] 0.073

(listing goes on)

CALU isoform 4 (UniProt O43852)
inactive: saracatinib 0.003 | sotrastaurin 0.049 | alvocidib 0.026 | Tubastatin A -0.037 | [1] 0.005 | defactinib 0.019 | rucaparib -0.009 | [2] -0.054 | encorafenib -0.033 | [3] 0.054

CAND1 (UniProt Q86VP6)
inactive: saracatinib 0.027 | sotrastaurin 0.007 | alvocidib 0 | Tubastatin A -0.042 | [1] -0.034 | defactinib -0.01 | rucaparib -0.038 | [2] -0.055 | encorafenib 0.002 | [3] 0.016

C1GALT1 (UniProt Q9NS00)
inactive: saracatinib -0.026 | sotrastaurin 0.084 | alvocidib -0.08 | Tubastatin A 0.001 | [1] 0.07 | defactinib -0.052 | rucaparib -0.011 | [2] 0.011 | encorafenib 0.04 | [3] -0.064

C8orf82 (UniProt Q6P1X6)
inactive: saracatinib 0.067 | sotrastaurin -0.027 | alvocidib -0.003 | Tubastatin A -0.062 | [1] -0.008 | defactinib 0.027 | rucaparib 0.046 | [2] -0.062 | encorafenib -0.026 | [3] -0.012

CACYBP (UniProt Q9HB71)
inactive: saracatinib -0.029 | sotrastaurin 0.008 | alvocidib -0.052 | Tubastatin A -0.011 | [1] 0.017 | defactinib -0.008 | rucaparib -0.021 | [2] 0.015 | encorafenib -0.009 | [3] 0.032

C17orf80 (UniProt Q9BSJ5)
inactive: saracatinib 0.118 | sotrastaurin 0.082 | alvocidib -0.034 | Tubastatin A -0.047 | [1] -0.027 | defactinib 0.006 | rucaparib -0.008 | [2] -0.242 | encorafenib 0.117 | [3] 0.026

C6orf89 isoform 2 (UniProt Q6UWU4)
inactive: saracatinib 0.028 | sotrastaurin 0.037 | alvocidib -0.018 | Tubastatin A 0.049 | [1] 0.063 | defactinib -0.035 | rucaparib -0.076 | [2] -0.012 | encorafenib 0.016 | [3] 0.007

BSG (UniProt P35613)
inactive: saracatinib -0.002 | sotrastaurin 0.049 | alvocidib 0.083 | Tubastatin A 0.001 | [1] 0.011 | defactinib -0.029 | rucaparib -0.057 | [2] 0.053 | encorafenib -0.01 | [3] -0.001

C9orf40 (UniProt Q8IXQ3)
inactive: saracatinib -0.068 | sotrastaurin 0.017 | alvocidib 0 | Tubastatin A 0.21 | [1] -0.043 | defactinib -0.009 | rucaparib 0.01 | [2] 0.015 | encorafenib -0.004 | [3] -0.057
